The list shows a part of the results. Further columns of the screen follow, without active or inactive calls. Most of these compounds were active or inconclusive in the main read-out, so they are no random draw. Words in brackets tell the shape of the fitted curve; partial curves, single points and poor fits give uncertain potencies.

These results are taken from PubChem BioAssay AID2685 (National Center for Advancing Translational Sciences (NCATS), 2010).

This assay is described as follows: qHTS Assay for Lipid Storage Modulators in Drosophila S3 Cells.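 On cell number change: cells counted by Cell Tracker Red CMTPX staining in the red channel.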 As to conditions: BODIPY lipid droplet fluorescence, 18-24 h; for cell number change: measured here: cell count max response, cells fed with added oleic acid. The procedure, abridged: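 Drosophila S3 cells loaded with oleic acid (400 uM, as added) and compounds at several concentrations; lipid droplets imaged by 488-nm laser-scanning cytometry, 500–530 nm intensity and object ratio to cell channel. Percent activity normalized to 20 uM Triacsin C.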

Setting [1] is: measured here: lipid fluorescence (Fed channel) AC50, cells fed with added oleic acid.
[2] abbreviates: measured here: cell number channel AC50, cells fed with added oleic acid.

For the compound `NNC(=O)C1CC(O)CN1S(=O)(=O)c1ccc2ccccc2c1` (centres undefined), the cell number change is 7.91%. Also, the AC50 under setting [1] is 1.3 µM [rising, full curve].

As for `CCOc1ccc(OCCC(=O)OCC(=O)N2CCN(c3ccc(OC)cc3)CC2)cc1`, the cell number change was -5%.

For `Cc1c(Cl)c(=O)n2c(=O)c(Cl)c(C)n12`, the cell number change was -25.2%. Also, under setting [2], the AC50 is 0.146 µM [falling, partial curve, poor fit]. For the same compound, under setting [1], the AC50 was 0.58 µM [falling, single point].

For `CCOC(=O)Cn1nc(C)c2ccccc2c1=O`, the cell number change was -23.3%.

On to `Cc1cc(C(=O)CSc2nnc(Nc3ccccc3F)s2)c(C)n1CC1CCCO1` (centres undefined), for which the cell number change came to 8.56%. Further, under setting [1], the AC50 was 29.1 µM [falling, single point].

As for `O=c1cc(CNc2ccc(Br)cc2)nc2sccn12`, the AC50 under setting [1] was 10.3 µM [rising, partial curve, poor fit].

For the compound `CC1(C)CC(=O)C2=C(C1)N(CCN1CCOCC1)C1=C(C(=O)CC(C)(C)C1)C2c1ccc(Cl)c([N+](=O)[O-])c1`, the cell number change is 4.05%. Moreover, under setting [2], the concentration at half-maximal activity (AC50) was 0.82 µM [falling, single point]. Besides, under setting [1], the half-maximal activity concentration (AC50) was 0.13 µM [rising, full curve, poor fit].

Take `CC(=O)CSc1nc(N(C)C)nc(N(C)C)n1`: the cell number change came to 0.65%. Besides, the AC50 under setting [1] was 0.398 µM [falling, partial curve, poor fit].

As to `CCCC[n+]1ccn(C2=C([O-])c3ccccc3C(=O)/C2=N\S(=O)(=O)c2ccccc2)c1`, the cell number change was -16%. Also, the half-maximal activity concentration (AC50) under setting [1] is 16.4 µM [falling, single point].

`COC(=O)c1c(NC(=O)CCCC(=O)O)sc2c1CCCCC2`: the cell number change is 31.4%. For the same compound, the AC50 under setting [1] was 25.9 µM [rising, partial curve].

With `CCOC(=O)CSc1nc2ccccc2c(=O)n1CC1COc2ccccc2O1` (centres undefined), the cell number change was -9.51%.

Take `COC(=O)c1cc(S(=O)(=O)Nc2ccsc2C(=O)OC)oc1C`: the cell number change was 50.3%. Further, the AC50 under setting [2] is 0.103 µM [rising, partial curve]. The AC50 under setting [1] was 0.291 µM [rising, partial curve].

On to `CC1=C(C(=O)OCC2CCCO2)C(c2coc3ccccc3c2=O)C2=C(CCCC2=O)N1` (centres undefined), for which the cell number change was 17.2%. The AC50 under setting [2] is 0.058 µM [falling, full curve, poor fit]. For the same compound, the concentration at half-maximal activity (AC50) under setting [1] was 0.0517 µM [falling, full curve, poor fit].

Regarding `CCNc1nc(Oc2ccc(=O)n(-c3ccccc3)n2)nc(N2CCOCC2)n1`, the cell number change turned out to be 115%. For the same compound, the AC50 under setting [2] is 18.4 µM [rising, partial curve].

Consider `Cn1c(=O)c2c(nc(SCCN3CCOCC3)n2Cc2ccc(F)cc2)n(C)c1=O`, for which the cell number change was -11.9%. Further, the AC50 under setting [1] is 1.64 µM [rising, partial curve].

Take `Cn1c(SCc2cc(=O)[nH]c3ccccc23)nnc1-c1ccco1`: the cell number change amounted to 18.2%. Moreover, the half-maximal activity concentration (AC50) under setting [1] is 8.2 µM [rising, partial curve, poor fit].

`Cc1cc(=O)n2[nH]c(COc3ccccc3)nc2n1`: the cell number change was -102%. Further, the concentration at half-maximal activity (AC50) under setting [2] was 32.6 µM [falling, partial curve]. Moreover, the AC50 under setting [1] was 29.1 µM [falling, partial curve].

For the compound `CC1CCN(c2ccc([N+](=O)[O-])cc2C(=O)N2CCOCC2)CC1`, the cell number change was -18.6%. Besides, the concentration at half-maximal activity (AC50) under setting [1] was 23.1 µM [falling, partial curve].

`Cc1cccc(NC(=O)/C(=C\c2ccc([N+](=O)[O-])o2)NC(=O)c2ccc(Cl)cc2)c1`: the cell number change is -16.1%. In addition, the concentration at half-maximal activity (AC50) under setting [1] is 8.2 µM [falling, single point].

Turning to `O=C(NC(=S)NCC1CCCO1)c1ccccc1[N+](=O)[O-]` (centres undefined), the cell number change worked out at 4.82%. Also, the half-maximal activity concentration (AC50) under setting [1] was 7.31 µM [rising, single point].

As for `Cn1cnnc1SCC(=O)n1c2ccccc2c2ccccc21`, the cell number change is -25.4%. Besides, under setting [2], the AC50 is 0.82 µM [falling, full curve, poor fit].

With `COCCn1c(-c2ccc(-c3ccc([N+](=O)[O-])cc3Br)o2)nc2c1c(=O)[nH]c(=O)n2CC(C)C`, the cell number change came out at 62.9%. In addition, the AC50 under setting [2] is 29.1 µM [rising, single point]. Also, the AC50 under setting [1] is 29.1 µM [rising, single point].

With `Cc1onc(-c2c(F)cccc2Cl)c1C(=O)OCC(=O)c1c[nH]c2ccccc12`, the cell number change came out at 0.389%. The AC50 under setting [1] is 0.00517 µM [rising, full curve, poor fit].

Take `CC(C)N1CC(C(=O)Nc2cc(Cl)cc(Cl)c2)CC1=O` (centres undefined): the cell number change was determined as 3.65%. Besides, the half-maximal activity concentration (AC50) under setting [1] was 4.11 µM [falling, full curve].

Regarding `CCOC(=O)N/N=C(\C)c1ccc(Br)cc1`, the half-maximal activity concentration (AC50) under setting [2] is 1.84 µM [rising, partial curve] and the AC50 under setting [1] is 2.91 µM [rising, partial curve].

As to `Cc1ccnc(SCc2ccc([N+](=O)[O-])cc2)n1`, the cell number change was found to be 7.66%. Besides, the AC50 under setting [1] was 1.3 µM [falling, partial curve].

With `Cc1ccc(C(=O)N2CCCC(Nc3ccc(C(C)C)cc3)C2)cn1` (centres undefined), the cell number change was 8.94%. Besides, the concentration at half-maximal activity (AC50) under setting [1] was 3.66 µM [rising, partial curve, poor fit].

Regarding `CN=c1scc(-c2cc(OC)ccc2OC)n1/N=C/c1c(C)[nH]c2ccccc12`, the cell number change was -31.3%. Besides, the concentration at half-maximal activity (AC50) under setting [2] is 29.1 µM [falling, single point]. Moreover, the half-maximal activity concentration (AC50) under setting [1] is 29.1 µM [falling, single point].

For the compound `Cc1ccccc1OCC(=O)N/N=C/c1ccc([N+](=O)[O-])o1`, the cell number change was -29%. The AC50 under setting [1] is 20.6 µM [falling, partial curve].

`CCCc1nc2ccccc2c(=O)n1/N=C/c1ccccc1O`: the cell number change is -27%. For the same compound, the AC50 under setting [1] is 0.146 µM [falling, single point].

Consider `COc1cccc(CCC(=O)O)c1OC`, for which the cell number change came to 5%. For the same compound, the AC50 under setting [1] is 0.00461 µM [falling, full curve, poor fit].

`Cc1cc(C(N)=O)c2ccccc2n1`: the cell number change is -16.3%. Moreover, under setting [2], the half-maximal activity concentration (AC50) is 4.61 µM [falling, single point]. Under setting [1], the half-maximal activity concentration (AC50) was 0.0366 µM [falling, full curve, poor fit].

For the compound `CC[C@@]12C(=O)N(c3cccc(Br)c3)C(=O)N1[C@H](c1ccc(OC)cc1)[C@@H]1C(=O)N(C(C)(C)C)C(=O)[C@@H]12`, the cell number change came out at 18.2%. Further, the half-maximal activity concentration (AC50) under setting [1] is 16.4 µM [rising, single point].

With `COc1ccc(S(=O)(=O)NCC(=O)Nc2ccc3c(c2)OCCO3)cc1OC`, the cell number change was 13.1%. Moreover, the AC50 under setting [1] is 29.1 µM [falling, single point].

On to `CC(=O)c1c(C)[nH]c(C(=O)CSc2nnc(-c3ccco3)n2Cc2ccccc2)c1C`, for which the cell number change came out at 1.56%. Further, the AC50 under setting [1] is 0.366 µM [rising, full curve, poor fit].
